Data as given in PubChem BioAssay AID1224830 (NIAID, 2016).
The whole screen tested about 18,000 reagents; this is a part drawn at random. About 2,900 of all reagents (16%) were called active. 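Calls are made per well; low scores hint the gene aids the LPS response, high scores that it dampens it.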 Repeated entries: four replicate wells of each siRNA pool.

Assay: 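Genes whose knock-down alters the TNF-alpha reporter response to LPS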 (primary screen)
Cell system: human THP-1 monocytic leukaemia cells, TNF dual-luciferase reporter clone, PMA-differentiated to macrophage-like cells
Reagents: siRNA pool against human genes, 50 nM
Time to read-out: LPS for 4 h, given about 3 days after siRNA transfection
Conditions: bacterial LPS (TLR4 ligand), 10 ng/ml
Measurement: 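TNF firefly reporter luminescence divided by renilla, normalised to the plate median, then turned into a robust z-score for each replicate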
Direction: TNF reporter robust z-score: higher = stronger TNF reporter response to LPS
Active means: 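Each well counts as active if its z-score is over 2.8 or under -1.5; controls are left without a call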

no.	gene symbol	TNF reporter robust z-score	Call
1	PSPC1 (paraspeckle component 1)	0.85	inactive
2	PSPC1 (paraspeckle component 1)	1.29	inactive
3	PSPC1 (paraspeckle component 1)	-0.18	inactive
4	PSPC1 (paraspeckle component 1)	1.18	inactive
5	GGTLC1 (gamma-glutamyltransferase light chain 1)	-0.02	inactive
6	GGTLC1 (gamma-glutamyltransferase light chain 1)	1.31	inactive
7	GGTLC1 (gamma-glutamyltransferase light chain 1)	2	inactive
8	GGTLC1 (gamma-glutamyltransferase light chain 1)	0.09	inactive
9	DIXDC1 (DIX domain containing 1)	0.91	inactive
10	DIXDC1 (DIX domain containing 1)	0.4	inactive
11	DIXDC1 (DIX domain containing 1)	2.08	inactive
12	DIXDC1 (DIX domain containing 1)	0.6	inactive
13	OR5M10 (olfactory receptor family 5 subfamily M member 10)	-0.02	inactive
14	OR5M10 (olfactory receptor family 5 subfamily M member 10)	-0.33	inactive
15	OR5M10 (olfactory receptor family 5 subfamily M member 10)	-1.08	inactive
16	OR5M10 (olfactory receptor family 5 subfamily M member 10)	-0.73	inactive
17	MEIOC (meiosis specific with coiled-coil domain)	0.03	inactive
18	MEIOC (meiosis specific with coiled-coil domain)	-0.04	inactive
19	MEIOC (meiosis specific with coiled-coil domain)	0.33	inactive
20	MEIOC (meiosis specific with coiled-coil domain)	-0.57	inactive
21	UBOX5 (U-box domain containing 5)	1.63	inactive
22	UBOX5 (U-box domain containing 5)	0.12	inactive
23	UBOX5 (U-box domain containing 5)	2.64	inactive
24	UBOX5 (U-box domain containing 5)	-0.97	inactive
25	OR4D5 (olfactory receptor family 4 subfamily D member 5)	-0.05	inactive
26	OR4D5 (olfactory receptor family 4 subfamily D member 5)	0.18	inactive
27	OR4D5 (olfactory receptor family 4 subfamily D member 5)	0.17	inactive
28	OR4D5 (olfactory receptor family 4 subfamily D member 5)	0.15	inactive
29	CIPC (CLOCK interacting pacemaker)	-0.21	inactive
30	CIPC (CLOCK interacting pacemaker)	0.11	inactive
31	CIPC (CLOCK interacting pacemaker)	0.02	inactive
32	CIPC (CLOCK interacting pacemaker)	0.24	inactive
33	OCA2 (OCA2 melanosomal transmembrane protein)	-0.88	inactive
34	OCA2 (OCA2 melanosomal transmembrane protein)	-0.31	inactive
35	OCA2 (OCA2 melanosomal transmembrane protein)	-0.35	inactive
36	OCA2 (OCA2 melanosomal transmembrane protein)	0.09	inactive
37	HIRIP3 (HIRA interacting protein 3)	-0.6	inactive
38	HIRIP3 (HIRA interacting protein 3)	1.07	inactive
39	HIRIP3 (HIRA interacting protein 3)	0.26	inactive
40	HIRIP3 (HIRA interacting protein 3)	0.16	inactive
41	LAMB2 (laminin subunit beta 2)	0.22	inactive
42	LAMB2 (laminin subunit beta 2)	0.92	inactive
43	LAMB2 (laminin subunit beta 2)	-0.01	inactive
44	LAMB2 (laminin subunit beta 2)	0.66	inactive
45	DNAJC18 (DnaJ heat shock protein family (Hsp40) member C18)	-0.21	inactive
46	DNAJC18 (DnaJ heat shock protein family (Hsp40) member C18)	0.86	inactive
47	DNAJC18 (DnaJ heat shock protein family (Hsp40) member C18)	0.12	inactive
48	DNAJC18 (DnaJ heat shock protein family (Hsp40) member C18)	3.97	active
49	RCBTB2 (RCC1 and BTB domain containing protein 2)	-0.69	inactive
50	RCBTB2 (RCC1 and BTB domain containing protein 2)	0.25	inactive
51	RCBTB2 (RCC1 and BTB domain containing protein 2)	-1.02	inactive
52	RCBTB2 (RCC1 and BTB domain containing protein 2)	-0.71	inactive

Next part; the last 11 above are carried over.
no.	gene symbol	TNF reporter robust z-score	Call
42	LAMB2 (laminin subunit beta 2)	0.92	inactive
43	LAMB2 (laminin subunit beta 2)	-0.01	inactive
44	LAMB2 (laminin subunit beta 2)	0.66	inactive
45	DNAJC18 (DnaJ heat shock protein family (Hsp40) member C18)	-0.21	inactive
46	DNAJC18 (DnaJ heat shock protein family (Hsp40) member C18)	0.86	inactive
47	DNAJC18 (DnaJ heat shock protein family (Hsp40) member C18)	0.12	inactive
48	DNAJC18 (DnaJ heat shock protein family (Hsp40) member C18)	3.97	active
49	RCBTB2 (RCC1 and BTB domain containing protein 2)	-0.69	inactive
50	RCBTB2 (RCC1 and BTB domain containing protein 2)	0.25	inactive
51	RCBTB2 (RCC1 and BTB domain containing protein 2)	-1.02	inactive
52	RCBTB2 (RCC1 and BTB domain containing protein 2)	-0.71	inactive
53	DAB2IP (DAB2 interacting protein)	-1.06	inactive
54	DAB2IP (DAB2 interacting protein)	-0.34	inactive
55	DAB2IP (DAB2 interacting protein)	0.98	inactive
56	DAB2IP (DAB2 interacting protein)	-0.13	inactive
57	CYP11A1 (cytochrome P450 family 11 subfamily A member 1)	0.87	inactive
58	CYP11A1 (cytochrome P450 family 11 subfamily A member 1)	0.41	inactive
59	CYP11A1 (cytochrome P450 family 11 subfamily A member 1)	-0.06	inactive
60	CYP11A1 (cytochrome P450 family 11 subfamily A member 1)	0.9	inactive
61	RMDN3 (regulator of microtubule dynamics 3)	-0.85	inactive
62	RMDN3 (regulator of microtubule dynamics 3)	-2.02	active
63	RMDN3 (regulator of microtubule dynamics 3)	-1.73	active
64	RMDN3 (regulator of microtubule dynamics 3)	0.06	inactive
65	RUFY2 (RUN and FYVE domain containing 2)	-0.46	inactive
66	RUFY2 (RUN and FYVE domain containing 2)	-0.02	inactive
67	RUFY2 (RUN and FYVE domain containing 2)	0.47	inactive
68	RUFY2 (RUN and FYVE domain containing 2)	0.54	inactive
69	ALG2 (ALG2 alpha-1,3/1,6-mannosyltransferase)	0.16	inactive
70	ALG2 (ALG2 alpha-1,3/1,6-mannosyltransferase)	-1.3	inactive
71	ALG2 (ALG2 alpha-1,3/1,6-mannosyltransferase)	-1.34	inactive
72	ALG2 (ALG2 alpha-1,3/1,6-mannosyltransferase)	-0.45	inactive
73	PIK3CA	-0.12	inactive
74	PIK3CA	0.2	inactive
75	PIK3CA	-0.66	inactive
76	PIK3CA	0.19	inactive
77	LRP10 (LDL receptor related protein 10)	-0.56	inactive
78	LRP10 (LDL receptor related protein 10)	-0.52	inactive
79	LRP10 (LDL receptor related protein 10)	-1.29	inactive
80	LRP10 (LDL receptor related protein 10)	-0.94	inactive
81	HCST (hematopoietic cell signal transducer)	-0.95	inactive
82	HCST (hematopoietic cell signal transducer)	0.81	inactive
83	HCST (hematopoietic cell signal transducer)	0.27	inactive
84	HCST (hematopoietic cell signal transducer)	-0.24	inactive
85	ELMOD2 (ELMO domain containing 2)	2.78	inactive
86	ELMOD2 (ELMO domain containing 2)	0.39	inactive
87	ELMOD2 (ELMO domain containing 2)	0.84	inactive
88	ELMOD2 (ELMO domain containing 2)	1.33	inactive
89	UTP4 (UTP4 small subunit processome component)	-0.04	inactive
90	UTP4 (UTP4 small subunit processome component)	0.45	inactive
91	UTP4 (UTP4 small subunit processome component)	-1.34	inactive
92	UTP4 (UTP4 small subunit processome component)	-0.69	inactive
93	GJD4 (gap junction protein delta 4)	0.09	inactive
94	GJD4 (gap junction protein delta 4)	1.32	inactive
95	GJD4 (gap junction protein delta 4)	-0.24	inactive
96	GJD4 (gap junction protein delta 4)	0.08	inactive
97	RAB37 (RAB37, member RAS oncogene family)	0.73	inactive
98	RAB37 (RAB37, member RAS oncogene family)	0.78	inactive
99	RAB37 (RAB37, member RAS oncogene family)	0.03	inactive
100	DCP1A (decapping mRNA 1A)	1.33	inactive
101	DCP1A (decapping mRNA 1A)	2.66	inactive
102	DCP1A (decapping mRNA 1A)	1.35	inactive
103	DCP1A (decapping mRNA 1A)	1.34	inactive
104	GPR82 (G protein-coupled receptor 82)	-0.88	inactive
105	GPR82 (G protein-coupled receptor 82)	1.44	inactive
106	GPR82 (G protein-coupled receptor 82)	0.09	inactive
107	GPR82 (G protein-coupled receptor 82)	-0.15	inactive
108	DNA2 (DNA replication helicase/nuclease 2)	-1.53	active
109	DNA2 (DNA replication helicase/nuclease 2)	-0.91	inactive
110	DNA2 (DNA replication helicase/nuclease 2)	-1.12	inactive
111	DNA2 (DNA replication helicase/nuclease 2)	-0.35	inactive
112	KRTAP4-5 (keratin associated protein 4-5)	-0.12	inactive
113	KRTAP4-5 (keratin associated protein 4-5)	-0.05	inactive
114	KRTAP4-5 (keratin associated protein 4-5)	-0.64	inactive
115	KRTAP4-5 (keratin associated protein 4-5)	0.16	inactive
116	P2RX5 (purinergic receptor P2X 5)	0.2	inactive
117	P2RX5 (purinergic receptor P2X 5)	1.1	inactive
118	P2RX5 (purinergic receptor P2X 5)	0.57	inactive
119	P2RX5 (purinergic receptor P2X 5)	1.37	inactive
120	GJD2 (gap junction protein delta 2)	-0.87	inactive
121	GJD2 (gap junction protein delta 2)	-0.46	inactive
122	GJD2 (gap junction protein delta 2)	-0.97	inactive
123	GJD2 (gap junction protein delta 2)	-1.07	inactive
124	TMPRSS7 (transmembrane serine protease 7)	0.91	inactive
125	TMPRSS7 (transmembrane serine protease 7)	0.75	inactive
126	TMPRSS7 (transmembrane serine protease 7)	-0.65	inactive
127	TMPRSS7 (transmembrane serine protease 7)	1.2	inactive
128	ENG (endoglin)	0.47	inactive
129	ENG (endoglin)	-0.16	inactive
130	ENG (endoglin)	0.37	inactive
131	ENG (endoglin)	0.44	inactive
132	CADM2 (cell adhesion molecule 2)	-0.43	inactive
133	CADM2 (cell adhesion molecule 2)	0.88	inactive
134	CADM2 (cell adhesion molecule 2)	-0.42	inactive
135	CADM2 (cell adhesion molecule 2)	-1.08	inactive
136	LONRF2 (LON peptidase N-terminal domain and ring finger 2)	-2.09	active
137	LONRF2 (LON peptidase N-terminal domain and ring finger 2)	1.43	inactive
138	LONRF2 (LON peptidase N-terminal domain and ring finger 2)	-0.08	inactive
139	LONRF2 (LON peptidase N-terminal domain and ring finger 2)	-0.99	inactive
140	YBX3 (Y-box binding protein 3)	-2.07	active
141	YBX3 (Y-box binding protein 3)	-1.34	inactive
142	YBX3 (Y-box binding protein 3)	-1.03	inactive
143	YBX3 (Y-box binding protein 3)	-0.98	inactive
